The source of these data is PubChem BioAssay AID1487 (National Center for Advancing Translational Sciences (NCATS), 2009).

Values joined by “and” are separate entries in the source; they are usually repeats but may differ in a detail not shown here. Equal entries are not always repeated. The list shows a part of the results. These are further read-outs of the screen, such as a control signal, another cell line or another target. No call is given for them. Compounds called inactive in the main read-out are mostly missing here. Words in brackets tell the shape of the fitted curve; partial curves, single points and poor fits give uncertain potencies.

The assay in a line: qHTS Assay for Modulators of Lamin A Splicing. As to conditions: HeLa LMNA splicing GFP/RFP minigene ratio, 48 h. A digest of the protocol:
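S3 HeLa stable clones carrying a lamin A-EGFP splicing minigene plus DsRed2 were seeded at 600 cells/well in Opti-MEM with 2% FBS, pin-dosed and incubated 48 h at 37°C. Acumen cytometry (488 nm) gave the GFP/RFP total-intensity ratio.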
In general terms: qHTS replaces the single test concentration by a dilution series.

Where [1] appears, read: measured here: RFP viability control channel.
[2] abbreviates: measured here: GFP splicing reporter channel.

One may read the AC50 as the midpoint of the concentration-response curve, whichever way the signal moves. Turning to `O=C(NCc1cccc(C(F)(F)F)c1)c1cc(Cl)ccc1Cl`, the AC50 under setting [1] is 35.5 µM [rising, single point].

Take `Cc1ccc(-c2nnc(CSc3nc4cc5c(cc4cc3C)OCO5)o2)cc1`: the AC50 under setting [2] was 11.2 µM [rising, partial curve] and the half-maximal activity concentration (AC50) under setting [1] was 12.6 µM [rising, partial curve].

With `O=C(Nc1nc2ccc(S(=O)(=O)N3CCCC3)cc2s1)c1cccs1`, the half-maximal activity concentration (AC50) under setting [1] is 11.2 µM [rising, partial curve, poor fit].

With `CCCCOc1ccc(OCCCN2CCOCC2)cc1`, the concentration at half-maximal activity (AC50) was 5.62 nM [rising, full curve, poor fit] and 28.2 µM [falling, single point] under setting [2]; 0.355 µM [falling, partial curve, poor fit] under setting [1].

As to `CCSc1ccc(-c2ccc(C)cc2)nn1`, under setting [1], the AC50 was 14.1 µM [falling, partial curve, poor fit].

Regarding `COc1ccc(C2=NN(CC(=O)NCCc3ccccc3)C(=O)CC2)cc1`, the concentration at half-maximal activity (AC50) under setting [2] is 0.00355 µM [falling, full curve, poor fit] and the AC50 under setting [1] was 0.1 µM [falling, full curve, poor fit].

Consider `O=C(NCc1cccnc1)c1c(O)c2cccc3c2n(c1=O)CCC3`, for which the concentration at half-maximal activity (AC50) under setting [1] was 0.126 µM [falling, full curve, poor fit].

Regarding `CCC(=O)c1cc2c(C)cc(=O)oc2c(C)c1OC(C)=O`, the AC50 under setting [2] is 12.6 µM [rising, single point] and the AC50 under setting [1] is 15.8 µM [rising, single point].

In the case of `COc1cc(NC(=O)c2ccco2)c(C(=O)OCC(=O)c2c[nH]c3ccccc23)cc1OC`, under setting [1], the half-maximal activity concentration (AC50) is 35.5 µM [rising, single point].

As for `N#CC1=C(N)Oc2c(ccc3ccccc23)C1c1cccs1` (stereo not drawn), under setting [1], the AC50 was 0.501 µM [rising, full curve].

Take `CCOc1ccc2nc(SCC(=O)c3cccs3)sc2c1`: the AC50 under setting [1] was 6.31 µM [rising, single point].

Regarding `COc1cc2ccc(=O)oc2c(O)c1OCC=C(C)C`, the AC50 was 35.5 µM [falling, single point] under setting [2] and 0.158 µM [rising, full curve] under setting [1].

Turning to `O=C(CN(C1CCCCC1)S(=O)(=O)c1ccc(Cl)cc1)NCc1ccncc1`, under setting [2], the AC50 is 20 µM [rising, single point].

On to `O=C(NC1CCCC1)c1ccc(CSc2nc3cccnc3n2Cc2ccccc2)cc1`, for which the AC50 is, setting by setting: under setting [2], 0.398 µM [falling, partial curve]; under setting [1], 0.0282 µM [falling, full curve, poor fit].

As for `CN(Cc1cccnc1)Cc1cn(C)nc1-c1cccc(Cl)c1`, the AC50 under setting [1] is 2.24 µM [falling, full curve, poor fit].

For the compound `Cc1ccc(NCC(=O)N/N=C\C(Br)=C\c2ccccc2)cc1`, the AC50 by setting is: under setting [2], 22.4 µM [falling, single point]; under setting [1], 25.1 µM [falling, single point].

Consider `CC1CCC2C(C)(C)C3CC12CC[C@]3(C)O` (stereo partly drawn), for which, under setting [1], the AC50 was 0.631 µM [falling, full curve].

In the case of `Cc1onc(-c2ccccc2Cl)c1C(=O)Oc1cc(N)n(S(=O)(=O)c2ccc(F)cc2)n1`, the AC50 reads like this: under setting [2], 0.501 µM [falling, full curve]; under setting [1], 0.708 µM [falling, full curve].

`COc1ccc(C(c2sc3ncnn3c2O)N2CC(C)OC(C)C2)cc1OC` (stereo not drawn): the AC50 is, setting by setting: under setting [2], 11.2 µM [falling, partial curve, poor fit]; under setting [1], 8.91 µM [falling, partial curve].

Turning to `Cc1cccc(CNc2cc(-c3ccoc3)ncn2)c1`, the AC50 under setting [2] is 10 µM [falling, partial curve].

In the case of `S=C(Nc1cccc(Cl)c1)NC1CC2CCCC(C1)N2C1CCCC1` (stereo not drawn), the half-maximal activity concentration (AC50) under setting [1] was 5.01 µM [rising, single point].

Consider `Cc1c(Cl)c([N+](=O)[O-])nn1Cc1ccc(C(=O)Nc2ccc(Cl)cn2)o1`, for which the AC50 is 35.5 µM [rising, single point] under setting [2] and 35.5 µM [rising, single point] under setting [1].

On to `CC1CCc2nc(/C(C#N)=C/c3cccnc3)sc2C1` (stereo not drawn), for which the AC50 under setting [1] is 10 µM [rising, single point].

For the compound `CCc1ccc(NC(=S)N(Cc2ccc(Cl)cc2)Cc2ccc(C(=O)O)cc2)cc1`, the concentration at half-maximal activity (AC50) is 0.0355 µM [falling, full curve, poor fit] under setting [2] and 4.47 µM [falling, partial curve, poor fit] under setting [1].

Consider `CC(=O)Nc1cccc(C(=O)/C=C/c2cccs2)c1`, for which the AC50 under setting [1] was 11.2 µM [rising, partial curve].

On to `Nc1nc2nccc(-c3ccco3)n2n1`, for which the concentration at half-maximal activity (AC50) under setting [2] is 11.2 µM [falling, partial curve, poor fit].

On to `CN(C)c1ccc(NC(=O)Nc2ccc3snnc3c2)cc1`, for which the AC50 under setting [1] was 12.6 µM [rising, single point].

In the case of `CCCOc1ccc2nc(NC(=O)OC)[nH]c2c1`, the AC50 under setting [1] is 4.47 µM [rising, full curve].

As for `O=C1/C(=C\c2cccs2)N=C(c2cccs2)N1Nc1ccccc1`, the AC50 under setting [1] is 15.8 µM [rising, single point].

As to `Cc1ccc(C)c(NC(=O)c2cc(=O)c3ccccc3o2)c1`, the half-maximal activity concentration (AC50) under setting [2] was 15.8 µM [rising, single point].

For `CC(=O)Nc1nc(SCC(=O)Nc2nnc(C)s2)[nH]c(=O)c1NC(=O)c1cccs1`, the AC50 under setting [2] was 31.6 µM [rising, partial curve, poor fit].

Consider `CN1CCN(c2ncc3nc(-c4ccc(F)cc4)c(=O)n(Cc4cccs4)c3n2)CC1`, for which the concentration at half-maximal activity (AC50) is, setting by setting: under setting [2], 20 µM [falling, single point]; under setting [1], 17.8 µM [falling, single point].

`CC(=O)c1ccc(NS(=O)(=O)c2ccc(CC(C)C)cc2)cc1`: the half-maximal activity concentration (AC50) by setting is: under setting [2], 8.91 µM [rising, partial curve, poor fit]; under setting [1], 11.2 µM [rising, partial curve].

For `CC(=O)c1ccc(N2CCN(C(=S)Nc3cccc(Cl)c3)CC2)cc1`, the AC50 is 8.91 µM [rising, partial curve] under setting [2] and 11.2 µM [rising, partial curve] under setting [1].

Regarding `O=C(COC(=O)c1cncc(Br)c1)NC1CCCC1`, the AC50 under setting [1] is 5.62 µM [falling, full curve, poor fit].

As for `O=C(NCc1cccs1)c1cc(S(=O)(=O)N2CCCCC2)ccc1Cl`, the concentration at half-maximal activity (AC50) under setting [1] is 25.1 µM [rising, partial curve, poor fit].

For `CC(C)n1c(C(=O)OCC(=O)NCc2ccc3c(c2)OCO3)cc2sccc21`, the concentration at half-maximal activity (AC50) was 12.6 µM [rising, partial curve] under setting [2] and 3.16 µM [rising, full curve] under setting [1].

Turning to `COc1ccccc1C(=O)N=C1NC(=O)CC2C(=O)NCCN12` (stereo not drawn), under setting [2], the AC50 was 0.631 µM [rising, partial curve].

With `O=C(NCc1ccccc1)Nc1cccn(Cc2ccccc2F)c1=O`, under setting [1], the half-maximal activity concentration (AC50) was 14.1 µM [rising, partial curve, poor fit].

On to `CN1/C(=C\C(=O)CN2C(=O)NC3(CCCCCC3)C2=O)C(C)(C)c2ccccc21`, for which the half-maximal activity concentration (AC50) under setting [1] is 25.1 µM [rising, single point].

As for `Cc1ccc(Cl)cc1N1CCN(c2ncnc3c2nc2n3CCCCC2)CC1`, the AC50 runs as follows: under setting [2], 35.5 µM [falling, single point]; under setting [1], 35.5 µM [falling, single point].

For `CCOC(=O)C1=C(C)NC(C)=C(C(=O)OC)C1c1cccc([N+](=O)[O-])c1` (stereo not drawn), the AC50 reads like this: under setting [2], 0.000891 µM [falling, full curve, poor fit]; under setting [1], 12.6 µM [rising, partial curve, poor fit] and 3.98 µM [falling, single point].

As to `Cc1cccc(COCC(Cc2ccccc2)N2CCN(C(=O)c3ccc(Cl)c(Cl)c3)CCC2=O)c1` (stereo not drawn), the concentration at half-maximal activity (AC50) under setting [2] is 35.5 µM [rising, single point] and the AC50 under setting [1] is 31.6 µM [rising, single point].

Take `COc1ccc(CCNS(=O)(=O)c2ccc(S(=O)(=O)N3CCCC3)cc2)cc1OC`: the AC50 reads like this: under setting [2], 12.6 µM [rising, partial curve, poor fit]; under setting [1], 20 µM [rising, single point].

As for `Cc1ccc(C(=O)/C=C/N(C)C)o1`, under setting [2], the concentration at half-maximal activity (AC50) was 0.112 µM [rising, full curve, poor fit].

Consider `Cc1nn(C(=O)Cn2ccc([N+](=O)[O-])n2)c(C)c1Br`, for which the half-maximal activity concentration (AC50) runs as follows: under setting [2], 5.62 µM [falling, single point]; under setting [1], 5.62 µM [falling, single point].

`Cc1noc(/C=C/N(C)C)c1S(=O)(=O)N1CCc2ccccc21`: the concentration at half-maximal activity (AC50) under setting [1] was 8.91 µM [rising, partial curve].

Turning to `CC1SCCN1S(=O)(=O)c1ccc2ccccc2c1` (stereo not drawn), the half-maximal activity concentration (AC50) by setting is: under setting [2], 14.1 µM [rising, single point]; under setting [1], 11.2 µM [rising, partial curve].

Regarding `CCc1ccc(CNCc2ccc(F)cc2)cc1`, the concentration at half-maximal activity (AC50) under setting [1] is 35.5 µM [rising, single point].

With `COc1ccc(N(C(=O)CCl)C(C(=O)NC2CCCCC2)c2cccnc2)cc1` (stereo not drawn), the AC50 under setting [1] is 2.82 µM [rising, partial curve].

Turning to `O=c1c(C(c2ccccc2)c2c(O)sc3ccccc3c2=O)c(O)sc2ccccc12`, the half-maximal activity concentration (AC50) is 0.0891 µM [falling, full curve] under setting [2] and 15.8 µM [falling, partial curve] under setting [1].

On to `CCCCS(=O)CC(COc1ccc(Cl)cc1)OC(=O)c1ccccc1` (stereo not drawn), for which, under setting [1], the AC50 was 22.4 µM [rising, single point].

On to `Cc1ccc(NC(=O)C2CC(=O)N(Cc3ccccc3)C2)cc1S(=O)(=O)N1CCCCCC1` (stereo not drawn), for which the half-maximal activity concentration (AC50) under setting [1] is 35.5 µM [rising, single point].

Consider `CCOC(=O)N1CCN(CCC(=O)Nc2ccc(OC(F)(F)F)cc2)CC1`, for which, under setting [1], the concentration at half-maximal activity (AC50) is 25.1 µM [rising, single point].

Regarding `COc1cc(CNc2nc(C)c([N+](=O)[O-])c(C)c2C#N)cc(OC)c1OC`, the AC50 is 7.08 µM [rising, partial curve] under setting [2] and 14.1 µM [rising, partial curve] under setting [1].
